Assay results taken from PMC12670160, “A drug-repurposing screen of FDA- and EMA-approved drugs identifies two NF-κB inhibitors active against eumycetoma” (Journal of Antimicrobial Chemotherapy, 2025).
Where a name gives a salt, the structure may show the parent alone. The campaign covered roughly 5,300 compounds. About 130 (2.5%) showed an effect of 50% or more. This is one part of the list.

test system: M. mycetomatis strain mm55; conditions: primary screen, metabolic activity vs growth control; 96 h, 2 µM; inhibitor

Row | Structure (SMILES) | % viability [%]
1 | CCCC(CCC)C(=O)Nc1ccn([C@@H]2O[C@H](CO)[C@@H](O)C2(F)F)c(=O)n1 [ONC0000963, ly2334737] | 78.95
2 | CCCCCCCCCCCCCCCCCC(=O)OCC(O)[C@H]1OC[C@H](O)[C@H]1O (stereo partly drawn) [ONC0002989, sorbitanmonostearate] | 79.74
3 | O=C(O)c1cc(/N=N/c2ccc(O)c(C(=O)O)c2)ccc1O [ONC0000450, olsalazine sodium] | 85.91
4 | CC(=O)NCCCS(=O)(=O)O [ONC0004105, acamprosate calcium] | 129.5
5 | Cc1c(N)nc([C@H](CC(N)=O)NC[C@H](N)C(N)=O)nc1C(=O)N[C@H](C(=O)N[C@H](C)[C@@H](O)[C@H](C)C(=O)N[C@H](C(=O)NCCc1nc(-c2nc(C(=O)NCCCNCCCCN)cs2)cs1)[C@@H](C)O)[C@@H](O[C@@H]1O[C@@H](CO)[C@@H](O)[C@H](O)[C@@H]1O[C@@H]1O[C@H](CO)[C@@H](O)[C@H](OC(N)=O)[C@@H]1O)c1cnc[nH]1 [ONC0002990, bleomycetin] | 3.217
6 | COc1cc2c(=O)c(-c3ccc(O)cc3)coc2cc1O [ONC0003860, glycitein] | 66.71
7 | C/C=C1\C(=O)C[C@H]2[C@@H]3CCC4=CC(=O)CC[C@]4(C)[C@H]3CC[C@]12C [ONC0001265, gr235] | 85.08
8 | CN(C)CC(=O)Nc1ccc2[nH]c(=O)c3ccccc3c2c1 [ONC0001831, pj34 hydrochloride] | 108.2
9 | CC(C(=O)OC1CC2CCC(C1)N2C)c1ccc(Br)cc1 (stereo not drawn) [ONC0000036, pg9] | 95.75
10 | CNC(=O)c1cc(Oc2ccc(NC(=O)Nc3ccc(Cl)c(C(F)(F)F)c3)c(F)c2)ccn1 [ONC0004706, regorafenib bay 734506] | 107.3
11 | O=C(O[C@H]1C[C@H]2CC[C@@H](C1)[N+]21CCCC1)C(O)(c1ccccc1)c1ccccc1 [ONC0005218, trospium chloride sanctura] | 139
12 | CC(C)(C)NCC(O)COc1cccc2c1CCC(=O)N2 (stereo not drawn) [ONC0000983, carteolol hydrochloride] | 72
13 | N#Cc1cc2c(OCC(O)CN3CCN(C(c4ccccc4)c4ccccc4)CC3)cccc2[nH]1 (stereo not drawn) [ONC0003436, sdz201 106] | 52.03
14 | CC(C)NCC(O)COc1ccccc1-n1cccc1 (stereo not drawn) [ONC0002641, isamoltane] | 68.8
15 | CNC[C@H](O)c1ccc(O)c(O)c1 [ONC0000669, epinephrine bitartrate] | 159.5

Compounds above containing four or more nitrogen atoms:
Row | Structure (SMILES) | % viability [%]
5 | Cc1c(N)nc([C@H](CC(N)=O)NC[C@H](N)C(N)=O)nc1C(=O)N[C@H](C(=O)N[C@H](C)[C@@H](O)[C@H](C)C(=O)N[C@H](C(=O)NCCc1nc(-c2nc(C(=O)NCCCNCCCCN)cs2)cs1)[C@@H](C)O)[C@@H](O[C@@H]1O[C@@H](CO)[C@@H](O)[C@H](O)[C@@H]1O[C@@H]1O[C@H](CO)[C@@H](O)[C@H](OC(N)=O)[C@@H]1O)c1cnc[nH]1 [ONC0002990, bleomycetin] | 3.217
10 | CNC(=O)c1cc(Oc2ccc(NC(=O)Nc3ccc(Cl)c(C(F)(F)F)c3)c(F)c2)ccn1 [ONC0004706, regorafenib bay 734506] | 107.3
13 | N#Cc1cc2c(OCC(O)CN3CCN(C(c4ccccc4)c4ccccc4)CC3)cccc2[nH]1 (stereo not drawn) [ONC0003436, sdz201 106] | 52.03
